According to patent US20230416357A1 (UCB, published 2023):
These are yes or no findings as the source states them, for the method shown. Some results given as binding are weak or reduced against the parent protein; the word gives no strength. For some of these results: Tags and fused reporters may be left off the sequences shown.

T1: Cynomolgus IL22 (cynomolgus) (UniProt G7PHZ7)
T1 sequence: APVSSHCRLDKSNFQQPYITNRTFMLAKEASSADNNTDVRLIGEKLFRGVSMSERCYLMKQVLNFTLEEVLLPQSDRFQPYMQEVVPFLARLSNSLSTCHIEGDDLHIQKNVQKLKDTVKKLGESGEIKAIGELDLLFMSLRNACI

T2: IL-22 expressed in Expi293 cells (N-terminal human Fc tag cleaved with TEV) (human) (UniProt Q9GZX6)
T2 sequence (chain, glycosylated (glycosylation sites seen in cryo-EM classes)): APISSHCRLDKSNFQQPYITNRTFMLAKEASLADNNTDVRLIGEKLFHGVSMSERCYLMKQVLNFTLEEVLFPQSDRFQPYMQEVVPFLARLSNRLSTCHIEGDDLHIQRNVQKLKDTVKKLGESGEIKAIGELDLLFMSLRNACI


Assays:
[1] = molecular target: Cleaved IL22 (IL-22 protein sequence after TEV cleavage) (human) (UniProt Q9GZX6); assay: complex purified by size-exclusion chromatography and crystallised (X-ray)
[2] = molecular target: T1, Cynomolgus IL22 (cynomolgus); assay: binding screen of recombinant cloned Fabs
[3] = molecular target: T2, IL-22 expressed in Expi293 cells (N-terminal human Fc tag cleaved with TEV) (human); assay: size-exclusion chromatography of the ternary complex, then cryo-EM

| binding [2] | Binder | other results |
| --- | --- | --- |
| – | 11041gL13gH14 Fab (Fab, V domains shown, Humanized Fab; also called VR11041) VH: EVQLVESGGGLVQPGGSLRLSCAVSGFSLSSYAMIWVRQAPGKGLEWIGIIDIEGSTYYASWAKGRFTISRDNSKNTVYLQMNSLRAEDTAVYYCARDRFVGVDIFDPWGQGTLVTVSS VL: AVQLTQSPSSLSASVGDRVTITCQASEDIYTNLAWYQQKPGKAPKLLIYWASTLASGVPSRFSGSGSGTDFTLTISSLQPEDFATYYCQASVYGNAADSRYTFGGGTKVEIKR | binding [1]: binds |
| binds | 11070 (rat derived, parental) (Fab, V domains shown) VH: EVQLQESGPGLVQPSQTLSPTCTVSGFSLTSYSVHWVRQHSGKSLEWMGRMWSDGDTSYNSAFTSRLSITRDTSKSQVFLKMNSLQTEDTGTYYCARSLDFYYDTTLAFWGPGTTVTVSS VL: DIVMTQTPSNLAASPGESVSINCKASKTISKYLAWYQQKPGKANKLLIYSGSTLQSGTPSRFSGSGSSTDFTLTIRNLEPEDFGLYYCQQHNEYPLTFGSGTKLEIK | – |
| – | 11070gL7gH16 Fab (Fab, V domains shown) VH: EVQLQESGPGLVKPSQTLSLTCTVSGFSLTSYSVHWVRQHPGKGLEWIGRMWSDGDTSYNTAFTSRLTISRDTSKNQVSLKLSSVTAADTAVYYCARSLDFYYDTTLAFWGQGTTVTVSS VL: DIQMTQSPSSVSASVGDRVTITCKASKTISKYLAWYQQKPGKANKLLIYSGSTLQSGVPSRFSGSGSGTDFTLTISSLQPEDFATYYCQQHNEYPLTFGQGTKLEIKR | binding [3]: binds |
| binds | rabbit 11041 Fab (Fab, V domains shown) VH: QSVEESGGRLVTPGTPLTLTCTVSGFSLSSYAMIWVRQAPGEGLEWIGIIDIDGSTYYASWAKGRFTISRTSTTVDLKITSPTTGDTATYFCARDRFVGVDIFDPWGPGTLVTVSS VL: AVVLTQTASPVSAPVGGTVTIKCQASEDIYTNLAWYQQKPGQPPKLLIYWASTLASGVPSRFKGSGSGTEFTLTISDLECADAATYYCQACVYGNSADSRYTFGGGTEVVVK | – |
